Experimental data reported in the supplement of paper PMC10849652.
The other results are listed elsewhere or left out.

Sequences of proteins named here, by UniProt entry; tags and fusion partners are left off. A change or cut given only in a name is not applied to a line headed by its entry.
UniProt Q9NZ63: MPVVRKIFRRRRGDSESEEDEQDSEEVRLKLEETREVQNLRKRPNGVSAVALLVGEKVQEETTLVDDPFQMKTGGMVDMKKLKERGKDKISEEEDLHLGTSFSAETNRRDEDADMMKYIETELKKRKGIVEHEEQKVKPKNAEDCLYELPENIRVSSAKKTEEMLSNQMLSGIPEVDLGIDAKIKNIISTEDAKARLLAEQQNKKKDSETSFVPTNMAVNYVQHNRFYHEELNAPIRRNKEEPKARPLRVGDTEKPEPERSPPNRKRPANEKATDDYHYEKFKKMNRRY
UniProt Q7L1Q6: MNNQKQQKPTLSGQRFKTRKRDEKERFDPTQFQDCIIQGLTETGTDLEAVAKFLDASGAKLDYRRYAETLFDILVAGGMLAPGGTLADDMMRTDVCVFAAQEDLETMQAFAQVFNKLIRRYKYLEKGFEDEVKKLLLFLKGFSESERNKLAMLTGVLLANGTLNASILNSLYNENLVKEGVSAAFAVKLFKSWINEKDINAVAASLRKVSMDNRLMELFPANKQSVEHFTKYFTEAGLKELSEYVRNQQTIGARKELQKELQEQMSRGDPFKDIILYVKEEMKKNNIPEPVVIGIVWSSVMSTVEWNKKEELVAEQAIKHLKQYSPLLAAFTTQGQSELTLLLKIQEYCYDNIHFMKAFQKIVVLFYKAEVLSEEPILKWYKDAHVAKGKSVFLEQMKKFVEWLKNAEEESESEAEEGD
UniProt O75155: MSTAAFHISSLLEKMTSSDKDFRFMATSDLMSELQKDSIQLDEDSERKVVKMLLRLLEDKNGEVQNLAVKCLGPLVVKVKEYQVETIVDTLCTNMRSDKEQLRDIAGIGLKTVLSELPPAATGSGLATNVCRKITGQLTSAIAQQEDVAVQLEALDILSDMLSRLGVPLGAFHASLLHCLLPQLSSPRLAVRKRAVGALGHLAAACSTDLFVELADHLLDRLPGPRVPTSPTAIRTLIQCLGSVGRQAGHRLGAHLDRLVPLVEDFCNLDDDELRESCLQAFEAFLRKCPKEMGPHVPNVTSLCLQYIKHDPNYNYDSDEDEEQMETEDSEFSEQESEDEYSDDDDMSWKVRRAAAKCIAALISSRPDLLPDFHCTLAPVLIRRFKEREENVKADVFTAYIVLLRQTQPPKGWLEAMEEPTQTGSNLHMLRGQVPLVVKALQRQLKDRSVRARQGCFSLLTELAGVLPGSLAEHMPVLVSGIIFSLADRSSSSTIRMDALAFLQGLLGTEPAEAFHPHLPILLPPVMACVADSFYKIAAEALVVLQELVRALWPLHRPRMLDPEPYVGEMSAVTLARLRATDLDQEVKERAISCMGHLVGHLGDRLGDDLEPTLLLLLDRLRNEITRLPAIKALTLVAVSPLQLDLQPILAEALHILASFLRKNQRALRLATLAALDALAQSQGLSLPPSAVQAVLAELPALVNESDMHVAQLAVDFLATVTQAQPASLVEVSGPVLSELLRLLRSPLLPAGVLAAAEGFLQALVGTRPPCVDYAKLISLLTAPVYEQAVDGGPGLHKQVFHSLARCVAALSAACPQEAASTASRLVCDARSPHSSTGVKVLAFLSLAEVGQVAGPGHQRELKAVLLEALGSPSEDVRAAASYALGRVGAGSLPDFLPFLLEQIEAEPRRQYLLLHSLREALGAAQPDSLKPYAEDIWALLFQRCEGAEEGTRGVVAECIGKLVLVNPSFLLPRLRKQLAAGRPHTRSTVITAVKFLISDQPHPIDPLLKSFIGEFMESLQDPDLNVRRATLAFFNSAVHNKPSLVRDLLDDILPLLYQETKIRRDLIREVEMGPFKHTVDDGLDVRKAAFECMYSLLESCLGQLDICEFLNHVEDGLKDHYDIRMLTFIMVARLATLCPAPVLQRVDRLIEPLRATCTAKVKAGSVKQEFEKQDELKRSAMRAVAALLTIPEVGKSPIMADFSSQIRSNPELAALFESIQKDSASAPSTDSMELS
UniProt Q96EU7: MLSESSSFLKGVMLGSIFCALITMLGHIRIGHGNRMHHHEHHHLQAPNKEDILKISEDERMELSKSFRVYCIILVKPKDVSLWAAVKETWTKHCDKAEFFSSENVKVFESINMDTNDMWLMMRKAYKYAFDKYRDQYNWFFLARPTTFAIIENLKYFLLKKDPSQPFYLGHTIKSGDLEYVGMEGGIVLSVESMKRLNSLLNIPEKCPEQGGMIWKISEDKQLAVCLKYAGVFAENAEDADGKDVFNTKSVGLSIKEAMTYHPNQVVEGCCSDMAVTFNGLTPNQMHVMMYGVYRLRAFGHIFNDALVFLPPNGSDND
UniProt Q9H0W9: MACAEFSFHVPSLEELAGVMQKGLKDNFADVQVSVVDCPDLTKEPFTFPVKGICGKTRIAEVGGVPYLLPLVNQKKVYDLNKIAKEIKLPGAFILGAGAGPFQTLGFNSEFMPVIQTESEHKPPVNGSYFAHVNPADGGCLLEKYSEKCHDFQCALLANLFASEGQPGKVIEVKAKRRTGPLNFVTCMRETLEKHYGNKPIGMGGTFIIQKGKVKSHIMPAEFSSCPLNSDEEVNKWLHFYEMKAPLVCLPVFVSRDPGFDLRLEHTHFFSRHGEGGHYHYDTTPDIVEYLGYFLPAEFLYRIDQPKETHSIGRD
UniProt P47756, whole entry, looked up: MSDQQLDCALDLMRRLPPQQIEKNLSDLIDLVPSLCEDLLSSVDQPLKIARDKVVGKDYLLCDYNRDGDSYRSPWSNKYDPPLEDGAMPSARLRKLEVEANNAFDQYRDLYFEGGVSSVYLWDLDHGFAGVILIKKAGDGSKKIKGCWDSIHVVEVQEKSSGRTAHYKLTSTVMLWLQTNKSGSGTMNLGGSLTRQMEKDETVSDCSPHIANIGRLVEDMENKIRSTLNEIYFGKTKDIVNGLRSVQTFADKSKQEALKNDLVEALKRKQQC
UniProt Q8IYL3: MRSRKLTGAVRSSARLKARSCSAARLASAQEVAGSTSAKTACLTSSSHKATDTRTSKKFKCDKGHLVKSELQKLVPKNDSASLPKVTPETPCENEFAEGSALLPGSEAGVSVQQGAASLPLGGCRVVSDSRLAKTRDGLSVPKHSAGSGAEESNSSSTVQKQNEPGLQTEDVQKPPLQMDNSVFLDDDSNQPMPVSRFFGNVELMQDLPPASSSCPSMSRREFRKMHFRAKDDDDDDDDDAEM
UniProt Q96KE9: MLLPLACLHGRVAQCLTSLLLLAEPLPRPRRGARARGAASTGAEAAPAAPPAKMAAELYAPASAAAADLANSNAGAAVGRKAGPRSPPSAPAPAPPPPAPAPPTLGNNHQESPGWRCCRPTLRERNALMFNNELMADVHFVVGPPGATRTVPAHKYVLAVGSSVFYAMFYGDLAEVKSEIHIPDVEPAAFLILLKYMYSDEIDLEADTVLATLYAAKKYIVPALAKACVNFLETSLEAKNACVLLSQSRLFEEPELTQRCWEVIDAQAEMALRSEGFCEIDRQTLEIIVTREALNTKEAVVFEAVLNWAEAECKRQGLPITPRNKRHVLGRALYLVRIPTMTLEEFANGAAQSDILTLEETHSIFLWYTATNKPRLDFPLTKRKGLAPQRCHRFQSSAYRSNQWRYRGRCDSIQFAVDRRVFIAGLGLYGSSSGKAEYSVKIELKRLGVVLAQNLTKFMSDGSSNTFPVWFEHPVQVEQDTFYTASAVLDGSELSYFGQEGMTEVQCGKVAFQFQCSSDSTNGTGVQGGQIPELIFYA
UniProt O95873: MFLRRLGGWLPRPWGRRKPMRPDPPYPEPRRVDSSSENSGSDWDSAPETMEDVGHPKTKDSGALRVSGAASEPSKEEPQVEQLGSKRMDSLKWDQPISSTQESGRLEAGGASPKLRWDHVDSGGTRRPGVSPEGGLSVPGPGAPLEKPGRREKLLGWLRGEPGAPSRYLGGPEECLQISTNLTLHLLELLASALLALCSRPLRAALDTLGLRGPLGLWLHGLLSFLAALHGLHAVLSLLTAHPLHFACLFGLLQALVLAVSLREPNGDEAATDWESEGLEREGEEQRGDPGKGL
UniProt Q9H425: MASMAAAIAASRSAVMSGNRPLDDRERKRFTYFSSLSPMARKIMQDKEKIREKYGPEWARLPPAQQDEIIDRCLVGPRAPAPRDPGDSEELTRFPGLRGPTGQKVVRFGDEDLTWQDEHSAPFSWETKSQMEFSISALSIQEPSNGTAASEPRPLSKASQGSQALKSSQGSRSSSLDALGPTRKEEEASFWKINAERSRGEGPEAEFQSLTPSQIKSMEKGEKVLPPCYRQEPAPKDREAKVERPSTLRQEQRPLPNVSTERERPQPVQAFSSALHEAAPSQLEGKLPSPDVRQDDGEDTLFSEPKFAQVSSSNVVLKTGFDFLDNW
UniProt Q6ZSJ8: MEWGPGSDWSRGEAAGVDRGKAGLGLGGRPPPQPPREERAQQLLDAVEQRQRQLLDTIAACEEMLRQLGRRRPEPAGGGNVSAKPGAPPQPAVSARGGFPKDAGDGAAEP
UniProt P49069: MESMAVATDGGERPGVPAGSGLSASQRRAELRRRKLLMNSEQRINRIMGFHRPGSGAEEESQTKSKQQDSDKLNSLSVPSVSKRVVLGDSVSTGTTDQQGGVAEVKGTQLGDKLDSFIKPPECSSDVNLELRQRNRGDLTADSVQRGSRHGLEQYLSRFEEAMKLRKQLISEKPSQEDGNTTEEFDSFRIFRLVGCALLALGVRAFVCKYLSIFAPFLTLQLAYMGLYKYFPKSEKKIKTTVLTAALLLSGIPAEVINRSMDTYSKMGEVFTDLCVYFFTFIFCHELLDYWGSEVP
UniProt P04632: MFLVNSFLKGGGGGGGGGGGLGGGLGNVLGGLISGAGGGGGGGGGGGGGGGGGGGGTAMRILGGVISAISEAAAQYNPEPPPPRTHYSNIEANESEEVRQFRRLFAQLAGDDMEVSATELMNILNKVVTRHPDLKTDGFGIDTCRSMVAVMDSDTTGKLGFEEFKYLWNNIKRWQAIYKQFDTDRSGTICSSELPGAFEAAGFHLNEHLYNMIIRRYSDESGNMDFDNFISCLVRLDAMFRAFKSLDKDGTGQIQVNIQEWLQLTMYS
UniProt Q8N5I9: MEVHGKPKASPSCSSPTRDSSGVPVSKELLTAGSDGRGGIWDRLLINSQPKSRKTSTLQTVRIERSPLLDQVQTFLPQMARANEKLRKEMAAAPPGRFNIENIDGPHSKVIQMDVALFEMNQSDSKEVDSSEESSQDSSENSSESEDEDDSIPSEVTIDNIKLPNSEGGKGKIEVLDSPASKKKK

Legend:
Assay in all cases: log2 fold change, soluble protein after heating vs DMSO (PISA); higher = thermal stabilisation; K562 cells, 10 uM, 30 min; active = over 0.2 and 3.5 SD of the protein, either way, in both replicates (recomputed)
bafetinib = compound: Cc1ccc(NC(=O)c2ccc(CN3CC[C@H](N(C)C)C3)c(C(F)(F)F)c2)cc1Nc1nccc(-c2cncnc2)n1 [bafetinib]
In short: (§1)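 K562 cells at 2×10^6 cells/mL were treated with 10 μM compound for 30 min. Aliquots were heated for 3 min across 48°C-58°C, pooled, and extracted in PBS with 0.5% NP-40 at 4°C; soluble protein was the supernatant after 21,000xg for 90 min. Soluble protein was quantified by TMTpro 16plex LC-MS/MS with channel sums equalised, and reported as log2 fold change in thermal stability against DMSO controls, with values from duplicates.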

[1] = compound: Cc1cccc(CC(=O)N2CCc3c2ccc(-c2cn(C)c4ncnc(N)c24)c3F)n1
In short: as §1

nilotinib = compound: Cc1cn(-c2cc(NC(=O)c3ccc(C)c(Nc4nccc(-c5cccnc5)n4)c3)cc(C(F)(F)F)c2)cn1 [nilotinib]
In short: as §1

[2] = compound: Cc1nc(Nc2n[nH]c3c2CN(C(=O)N[C@H](CN(C)C)c2ccccc2)C3(C)C)c2sccc2n1
In short: as §1

dasatinib = compound: Cc1nc(Nc2ncc(C(=O)Nc3c(C)cccc3Cl)s2)cc(N2CCN(CCO)CC2)n1 [dasatinib]
In short: as §1

[3] = compound: Cc1ncc(-c2ccnc(Nc3ccc(S(C)(=O)=O)cc3)n2)n1C(C)C
In short: as §1

[4] = compound: Cn1cc(-c2ccc3c(c2)CCN3C(=O)Cc2cccc(C(F)(F)F)c2)c2c(N)ncnc21
In short: as §1

[5] = compound: Cn1cc(-c2ccc3nnc(C(F)(F)c4ccc5ncccc5c4)n3n2)cn1
In short: as §1

tipifarnib = compound: Cn1cncc1[C@@](N)(c1ccc(Cl)cc1)c1ccc2c(c1)c(-c1cccc(Cl)c1)cc(=O)n2C [tipifarnib]
In short: as §1

mubritinib = compound: FC(F)(F)c1ccc(/C=C/c2nc(COc3ccc(CCCCn4ccnn4)cc3)co2)cc1 [mubritinib]
In short: as §1

[6] = compound: NC(=O)Nc1cc(-c2cccc(F)c2)sc1C(=O)N[C@H]1CCCNC1
In short: as §1

[7] = compound: NC(=O)c1cnc(N[C@@H]2CCCC[C@@H]2N)nc1Nc1cccc(-n2nccn2)c1
In short: as §1

[8] = compound: NC1(c2ccc(-c3nc4ccn5c(=O)[nH]nc5c4cc3-c3ccccc3)cc2)CCC1
In short: as §1

[9] = compound: NCC(=O)Nc1ccc(-n2nc(C(F)(F)F)cc2-c2ccc3c(ccc4ccccc43)c2)cc1
In short: as §1

entinostat = compound: Nc1ccccc1NC(=O)c1ccc(CNC(=O)OCc2cccnc2)cc1 [entinostat]
In short: as §1

vorinostat = compound: O=C(CCCCCCC(=O)Nc1ccccc1)NO [vorinostat]
In short: as §1

citarinostat = compound: O=C(CCCCCCNC(=O)c1cnc(N(c2ccccc2)c2ccccc2Cl)nc1)NO [citarinostat]
In short: as §1

silmitasertib = compound: O=C(O)c1ccc2c(c1)nc(Nc1cccc(Cl)c1)c1ccncc12 [silmitasertib]
In short: as §1

[10] = compound: O=C1NC(=O)C(c2cnc3ccccn23)=C1c1cn2c3c(cc(F)cc13)CN(C(=O)N1CCCCC1)CC2
In short: as §1

[11] = compound: c1cc(OCCN2CCCCC2)cc(-c2n[nH]c3ccc(-c4nnc[nH]4)cc23)c1
In short: as §1

Measured: log2 fold change

C9orf78 (UniProt Q9NZ63)
inactive: bafetinib -0.084 | [1] -0.053 | nilotinib 0.005 | [2] -0.017 | dasatinib 0.071 | [3] -0.002 | [4] 0.002 | [5] -0.016 | tipifarnib 0.016 | mubritinib 0.025 | [6] 0.048 | [7] -0.009 | [8] 0.029 | [9] 0.017 | entinostat -0.008 | vorinostat -0.062 | citarinostat -0.015 | silmitasertib -0.028 | [10] -0.006 | [11] 0.027

BZW1 isoform 3 (UniProt Q7L1Q6)
inactive: bafetinib 0.002 | [1] 0.167 | nilotinib -0.124 | [2] -0.138 | dasatinib -0.283 | [3] 0.03 | [4] 0.017 | [5] 0.011 | tipifarnib -0.364 | mubritinib 0.089 | [6] 0.071 | [7] -0.054 | [8] -0.246 | [9] -0.093 | entinostat 0.165 | vorinostat 0.209 | citarinostat 0.075 | silmitasertib 0.02 | [10] 0.019 | [11] -0.081

C19orf53 (UniProt Q9UNZ5)
inactive: bafetinib 0.271 | [1] 0.034 | nilotinib 0.029 | [2] 0.139 | dasatinib 0.222 | [3] 0.023 | [4] -0.207 | [5] -0.083 | tipifarnib 0.165 | mubritinib -0.13 | [6] 0.136 | [7] 0.061 | [8] 0.279 | [9] 0.177 | entinostat -0.026 | vorinostat -0.051 | citarinostat -0.105 | silmitasertib 0.123 | [10] 0.214 | [11] -0.155

CAND2 (UniProt O75155)
inactive: bafetinib -0.098 | [1] 0.007 | nilotinib -0.008 | [2] -0.003 | dasatinib 0.063 | [3] -0.018 | [4] -0.005 | [5] 0.077 | tipifarnib 0.109 | mubritinib 0.061 | [6] -0.02 | [7] 0.1 | [8] -0.003 | [9] -0.022 | entinostat -0.001 | vorinostat 0.009 | citarinostat -0.019 | silmitasertib -0.021 | [10] -0.019 | [11] 0.004

CAPZA2 (UniProt P47755)
inactive: bafetinib -0.03 | [1] 0.027 | nilotinib 0.025 | [2] -0.014 | dasatinib -0.012 | [3] -0.002 | [4] 0.016 | [5] -0.004 | tipifarnib -0.063 | mubritinib 0.033 | [6] 0.068 | [7] -0.011 | [8] -0.062 | [9] -0.007 | entinostat 0.035 | vorinostat 0.004 | citarinostat 0.032 | silmitasertib 0.01 | [10] -0.056 | [11] -0.018

C1GALT1C1 (UniProt Q96EU7)
inactive: bafetinib 0.005 | [1] 0.019 | nilotinib 0.056 | [2] -0.067 | dasatinib 0.017 | [3] -0.09 | [4] 0.036 | [5] -0.048 | tipifarnib 0.017 | mubritinib 0.034 | [6] -0.052 | [7] 0.04 | [8] -0.046 | [9] -0.118 | entinostat -0.026 | vorinostat -0.042 | citarinostat 0.023 | silmitasertib 0.018 | [10] -0.007 | [11] -0.072

C11orf54 (UniProt Q9H0W9)
inactive: bafetinib -0.045 | [1] -0.025 | nilotinib 0.032 | [2] 0.022 | dasatinib 0.024 | [3] -0.019 | [4] -0.008 | [5] -0.003 | tipifarnib -0.026 | mubritinib 0.045 | [6] -0.06 | [7] -0.011 | [8] -0.008 | [9] 0.028 | entinostat -0.032 | vorinostat 0.074 | citarinostat 0.095 | silmitasertib -0.002 | [10] -0.045 | [11] 0

Two neighbouring records out of the list so far, for reference:
C19orf53 (UniProt Q9UNZ5)
inactive: bafetinib 0.271 | [1] 0.034 | nilotinib 0.029 | [2] 0.139 | dasatinib 0.222 | [3] 0.023 | [4] -0.207 | [5] -0.083 | tipifarnib 0.165 | mubritinib -0.13 | [6] 0.136 | [7] 0.061 | [8] 0.279 | [9] 0.177 | entinostat -0.026 | vorinostat -0.051 | citarinostat -0.105 | silmitasertib 0.123 | [10] 0.214 | [11] -0.155

CAND2 (UniProt O75155)
inactive: bafetinib -0.098 | [1] 0.007 | nilotinib -0.008 | [2] -0.003 | dasatinib 0.063 | [3] -0.018 | [4] -0.005 | [5] 0.077 | tipifarnib 0.109 | mubritinib 0.061 | [6] -0.02 | [7] 0.1 | [8] -0.003 | [9] -0.022 | entinostat -0.001 | vorinostat 0.009 | citarinostat -0.019 | silmitasertib -0.021 | [10] -0.019 | [11] 0.004

Going on with the list:

CAPZB (UniProt P47756)
inactive: bafetinib -0.076 | [1] 0.012 | nilotinib 0.012 | [2] 0 | dasatinib 0.023 | [3] -0.001 | [4] 0.014 | [5] 0.058 | tipifarnib -0.024 | mubritinib 0.018 | [6] 0.003 | [7] -0.058 | [8] 0.012 | [9] -0.015 | entinostat -0.016 | vorinostat -0.004 | citarinostat -0.028 | silmitasertib -0.042 | [10] -0.073 | [11] 0.018

C1orf174 (UniProt Q8IYL3)
inactive: bafetinib 0.023 | [1] -0.115 | nilotinib 0.079 | [2] 0.032 | dasatinib 0.047 | [3] -0.01 | [4] -0.076 | [5] -0.017 | tipifarnib 0.029 | mubritinib -0.033 | [6] -0.036 | [7] -0.11 | [8] 0.005 | [9] 0.049 | entinostat -0.042 | vorinostat -0.067 | citarinostat -0.028 | silmitasertib -0.002 | [10] 0.108 | [11] 0.125

BTBD6 (UniProt Q96KE9)
inactive: bafetinib -0.007 | [1] 0.011 | nilotinib 0.277 | [2] -0.044 | dasatinib 0.008 | [3] -0.098 | [4] 0.239 | [5] -0.003 | tipifarnib -0.121 | mubritinib 0.153 | [6] 0.054 | [7] 0.102 | [8] 0.469 | [9] 0.199 | entinostat -0.039 | vorinostat 0.081 | citarinostat 0.273 | silmitasertib -0.352 | [10] -0.011 | [11] 0.118

C6orf47 (UniProt O95873)
inactive: bafetinib -0.078 | [1] -0.093 | nilotinib -0.029 | [2] -0.021 | dasatinib -0.036 | [3] 0.002 | [4] 0.036 | [5] 0.037 | tipifarnib 0.083 | mubritinib 0.029 | [6] -0.028 | [7] -0.031 | [8] -0.041 | [9] 0.003 | entinostat -0.008 | vorinostat -0.092 | citarinostat 0.045 | silmitasertib 0.022 | [10] -0.055 | [11] -0.012

C1orf198 (UniProt Q9H425)
inactive: bafetinib -0.141 | [1] -0.074 | nilotinib 0.026 | [2] -0.039 | dasatinib -0.126 | [3] 0.032 | [4] 0.047 | [5] -0.058 | tipifarnib 0.046 | mubritinib 0 | [6] -0.032 | [7] 0.063 | [8] -0.058 | [9] 0.027 | entinostat 0.047 | vorinostat 0.019 | citarinostat 0.212 | silmitasertib 0.04 | [10] 0.068 | [11] -0.127

C1orf122 (UniProt Q6ZSJ8)
inactive: bafetinib -0.065 | [1] -0.143 | nilotinib -0.022 | [2] -0.048 | dasatinib 0.031 | [3] 0 | [4] -0.009 | [5] 0.02 | tipifarnib 0.089 | mubritinib 0.088 | [6] -0.119 | [7] 0.117 | [8] -0.023 | [9] -0.016 | entinostat 0.01 | vorinostat -0.242 | citarinostat 0.012 | silmitasertib 0.026 | [10] -0.103 | [11] -0.022

CAMLG (UniProt P49069)
inactive: bafetinib -0.024 | [1] -0.128 | nilotinib 0.062 | [2] -0.023 | dasatinib 0.029 | [3] 0.025 | [4] 0.008 | [5] -0.019 | tipifarnib 0.157 | mubritinib 0.034 | [6] 0.021 | [7] -0.011 | [8] 0.034 | [9] 0.022 | entinostat -0.004 | vorinostat -0.122 | citarinostat 0.124 | silmitasertib 0.014 | [10] 0.017 | [11] -0.148

CAPNS1 (UniProt P04632)
inactive: bafetinib -0.052 | [1] -0.052 | nilotinib 0.03 | [2] 0.013 | dasatinib 0.026 | [3] -0.022 | [4] 0.041 | [5] 0.027 | tipifarnib 0.032 | mubritinib 0.002 | [6] -0.024 | [7] 0.006 | [8] -0.021 | [9] 0.03 | entinostat -0.016 | vorinostat 0.015 | citarinostat 0.015 | silmitasertib -0.003 | [10] -0.068 | [11] -0.033

C12orf45 (UniProt Q8N5I9)
inactive: bafetinib 0.011 | [1] -0.027 | nilotinib 0.013 | [2] 0.009 | dasatinib 0.003 | [3] -0.036 | [4] 0.033 | [5] 0.056 | tipifarnib 0.023 | mubritinib -0.001 | [6] 0.025 | [7] -0.003 | [8] -0.02 | [9] 0.043 | entinostat -0.007 | vorinostat -0.044 | citarinostat 0.033 | silmitasertib 0.036 | [10] -0.038 | [11] -0.001
